Reference: PMC9458560
These are yes or no findings as the source states them, for the method shown. In cells and extracts the contact can be indirect. Some results given as binding are weak or reduced against the parent protein; the word gives no strength. Tags and fused reporters may be left off the sequences shown.

Chains of the proteins cited; added tags and fusions are not shown.
UniProt P05429: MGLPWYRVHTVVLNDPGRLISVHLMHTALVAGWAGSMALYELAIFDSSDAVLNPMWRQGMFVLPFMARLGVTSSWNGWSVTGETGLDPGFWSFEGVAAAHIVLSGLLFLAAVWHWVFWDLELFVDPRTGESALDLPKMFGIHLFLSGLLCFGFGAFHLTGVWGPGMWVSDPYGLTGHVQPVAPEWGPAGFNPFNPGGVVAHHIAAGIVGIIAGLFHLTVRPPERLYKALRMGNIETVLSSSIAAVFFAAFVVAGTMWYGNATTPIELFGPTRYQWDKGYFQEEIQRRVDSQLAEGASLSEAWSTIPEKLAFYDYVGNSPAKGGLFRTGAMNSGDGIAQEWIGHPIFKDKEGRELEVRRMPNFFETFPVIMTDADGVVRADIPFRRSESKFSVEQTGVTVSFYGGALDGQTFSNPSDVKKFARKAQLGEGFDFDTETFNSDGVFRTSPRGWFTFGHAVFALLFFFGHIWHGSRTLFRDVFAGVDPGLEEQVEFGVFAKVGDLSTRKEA

Molecular target: T1, N-terminally FLAG-tagged Psb34 (Synechocystis sp. PCC 6803) (UniProt P74067)
T1 sequence: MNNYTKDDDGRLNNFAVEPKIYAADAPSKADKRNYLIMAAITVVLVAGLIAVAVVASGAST
Test: co-IP; FLAG-Psb34 pulled down on anti-FLAG M2 affinity gel from β-DDM-solubilised membranes of FLAG-Psb34/∆Psb34 cells exposed to 500 µmol photons m^-2 s^-1 for 2 h; eluate analysed by 2D-CN/SDS-PAGE, SYPRO stain and immunoblot

Substance	binding
CP47 (from UniProt P05429 1-507)	binds
CP43 (from UniProt P09193 1-460)	binds
